# Test results as given in PubChem BioAssay AID504467 (National Center for Advancing Translational Sciences (NCATS), 2011).
# About 7,700 (2.3%) of roughly 330,000 compounds were called active. The inconclusive results got no clear call from the source; some entries with a clear call stand among them for comparison. The call rests on the fitted dose curve; in most records, active means well fitted inhibition curve with a large enough effect; inconclusive means small, poorly fitted or top-dose-only effect, or effect the other way; inactive means flat fitted curve, though single readings scatter. Where the call is inconclusive, the potency comes from a doubtful curve fit.
# Assay: qHTS screen for small molecules that inhibit ELG1-dependent DNA repair in human embryonic kidney (HEK293T) cells expressing luciferase-tagged ELG1; further: nearly all actives have a fitted effect of over 55% in size
# Conditions: HEK293T ELG1-luciferase reporter, luminescence, 16 h, DNA damage induced by 5-fluorouridine; activity change, negative = inhibition: at 46.1 µM (top of the series)
# How it was run: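 Quantitative HTS, concentration-response format. 2,000 cells/well co-treated with 5-fluorouridine and compound, 16 hr in 5% CO2 at 37 °C; ONE-Glo luminescence read after 30 min.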
# On the % scale 0 is the no-effect control and ±100 the full control effect; potency means the concentration at half of the fitted maximal effect.
SMILES,"activity change, negative = inhibition",Potency
Cn1c(SCC(=O)NCC2CCCO2)nnc1-c1ccc(Cl)cc1 (stereo not given),inactive: 26.4%,–
COc1cc(/C=C2/C(=O)N(c3ccc(C)c(C)c3)N=C2C)cc([N+](=O)[O-])c1O,inactive: -13.3%,–
CN1CCN(S(=O)(=O)c2ccc(NC(=S)NC(=O)C3CCCCC3)cc2)CC1,–,"inconclusive: 14.6 µM [inhibitor, single point]"
C/C(=N/OC(=O)c1ccc(C(F)(F)F)cc1)c1oc(C)nc1C,inactive: 21.3%,–
CSc1ccccc1NC(=O)CN(C)CC(=O)Nc1ccc(Cl)cc1F,–,"inconclusive: 16.4 µM [inhibitor, single point]"
CN(CCc1ccccn1)C(=O)CCC1CCCN(C(=O)CCOc2ccccc2)C1 (stereo not given),inactive: -14.8%,–
CCCCNc1ncnc2c1cnn2-c1ccccc1,–,"inconclusive: 2.59 µM [activator, full curve]"
Cc1nc2ncccn2c1-c1csc(Nc2ccc(N(C)C)cc2)n1,–,"inconclusive: 4.11 µM [activator, full curve, poor fit]"
Cc1c(NC(=O)CSc2ccc(Cl)cc2)cccc1-c1nc2ncccc2o1,–,active: 9.2 µM
O=C(NC1CCCCC1)c1nn2c(C(F)(F)F)cc(-c3ccco3)nc2c1Br,–,"inconclusive: 0.0052 µM [inhibitor, full curve, poor fit]"
Cc1c(Br)c(C(=O)N2CCc3ccccc32)nn1C,–,"inconclusive: 13 µM [activator, partial curve]"
CC(=O)Nc1sc(NC(=O)c2ccc(C)cc2)nc1-c1cccs1,inactive: -3%,–
CC(C)(C)[C@H]1COC(=O)[C@H](NC(=O)OCC2c3ccccc3-c3ccccc32)C/C=C\C[C@@H](CC(=O)N[C@@H](CO)Cc2ccccc2)C(=O)N1,–,"inconclusive: 23.1 µM [inhibitor, single point]"
Cc1cccc(CCN=C(N)NS(=O)(=O)c2ccccc2)c1,inactive: -1.39%,–
Cc1ccc(S(=O)(=O)N(C)c2ccc(OCC(=O)Nc3cccc(-n4cnnn4)c3C)cc2)cc1,–,active: 23.1 µM
Cc1noc(C)c1CSCC(=O)N1CCN(c2ccc([N+](=O)[O-])cc2)CC1,–,active: 20.6 µM
O=C1C2C3C=CC(C4CC34)C2C(=O)N1/N=C/c1ccc([N+](=O)[O-])s1 (stereo not given),–,"inconclusive: 8.2 µM [activator, partial curve, poor fit]"
Nc1nc(CCl)nc(Nc2ccccc2)n1,inactive: -15.7%,–
O=C1/C(=C/c2cccs2)CCc2ccccc21,–,"inconclusive: 14.6 µM [activator, partial curve]"
COc1ccc(-c2cn[nH]c2-c2ccc(OCc3ccc([N+](=O)[O-])cc3)cc2O)cc1,–,"inconclusive: 5.17 µM [inhibitor, partial curve]"

# Some of these compounds in order of length of the SMILES, rising:
SMILES,"activity change, negative = inhibition",Potency
Nc1nc(CCl)nc(Nc2ccccc2)n1,inactive: -15.7%,–
Cn1c(SCC(=O)NCC2CCCO2)nnc1-c1ccc(Cl)cc1 (stereo not given),inactive: 26.4%,–
O=C(NC1CCCCC1)c1nn2c(C(F)(F)F)cc(-c3ccco3)nc2c1Br,–,"inconclusive: 0.0052 µM [inhibitor, full curve, poor fit]"
